Measurements reported in publication PMC6445466.
Results are given in words; binding and its absence hold for the method and conditions named. Binding can be weak; no strength is given.

Protein sequences, listed by entry. Tags and fused reporters are not part of them. Lines headed by an entry give the natural chain unless they say otherwise; changes in a name come on top.
UniProt O50835: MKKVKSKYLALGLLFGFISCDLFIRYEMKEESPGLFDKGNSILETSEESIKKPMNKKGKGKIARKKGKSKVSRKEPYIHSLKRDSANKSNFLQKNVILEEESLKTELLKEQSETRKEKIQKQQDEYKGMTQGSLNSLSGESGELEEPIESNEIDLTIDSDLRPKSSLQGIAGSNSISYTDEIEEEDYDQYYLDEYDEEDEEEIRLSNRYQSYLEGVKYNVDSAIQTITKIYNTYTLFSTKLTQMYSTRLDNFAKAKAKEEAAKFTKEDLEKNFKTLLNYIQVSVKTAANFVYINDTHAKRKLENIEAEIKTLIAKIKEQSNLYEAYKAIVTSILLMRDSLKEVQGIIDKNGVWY

Target: T1, human C1r, full-length enzyme (human) (UniProt P00736)
T1 sequence: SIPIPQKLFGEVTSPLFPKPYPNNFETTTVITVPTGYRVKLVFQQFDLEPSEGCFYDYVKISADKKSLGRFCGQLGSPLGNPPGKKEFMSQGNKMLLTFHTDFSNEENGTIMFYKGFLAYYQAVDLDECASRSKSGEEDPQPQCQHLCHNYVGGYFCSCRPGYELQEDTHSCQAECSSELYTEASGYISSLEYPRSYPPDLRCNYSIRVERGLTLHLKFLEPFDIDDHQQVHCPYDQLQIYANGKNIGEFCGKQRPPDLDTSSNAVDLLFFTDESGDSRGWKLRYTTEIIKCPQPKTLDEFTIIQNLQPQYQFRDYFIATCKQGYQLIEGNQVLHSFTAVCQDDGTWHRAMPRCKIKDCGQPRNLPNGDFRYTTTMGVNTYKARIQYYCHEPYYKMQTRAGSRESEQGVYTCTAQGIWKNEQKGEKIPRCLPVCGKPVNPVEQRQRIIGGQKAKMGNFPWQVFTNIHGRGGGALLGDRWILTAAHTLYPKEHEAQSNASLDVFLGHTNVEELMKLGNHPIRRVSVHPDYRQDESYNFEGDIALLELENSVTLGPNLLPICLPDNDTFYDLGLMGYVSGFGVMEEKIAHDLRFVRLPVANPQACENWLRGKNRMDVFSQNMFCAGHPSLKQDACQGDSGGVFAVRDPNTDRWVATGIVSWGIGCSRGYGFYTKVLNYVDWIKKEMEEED
Assay: whole-cell adherence assay; 1 ug human C1r (or BSA) coated on poly-D-lysine coverslips; intact B314 spirochetes expressing the lipoprotein applied for 2 hr at 32 °C, washed, scored by dark field microscopy; only the target purified

Q: With “BBK32, full-length lipoprotein expressed in B. burgdorferi strain B314 (B314/pCD100) (from UniProt O50835)” as the substance, how does the binding read?
A: The binding was “binds”.
